No constants are given. Whether binding was seen depends on the method and setting. In cells and extracts the contact can be indirect. A result given as binding can be weak or reduced; the word gives no strength.

Consider 2 substances from article PMC7804115.

The target of this test is T1, mouse Jaw1 long form (Ms LJaw1) (mouse) (UniProt Q60664).
T1 sequence: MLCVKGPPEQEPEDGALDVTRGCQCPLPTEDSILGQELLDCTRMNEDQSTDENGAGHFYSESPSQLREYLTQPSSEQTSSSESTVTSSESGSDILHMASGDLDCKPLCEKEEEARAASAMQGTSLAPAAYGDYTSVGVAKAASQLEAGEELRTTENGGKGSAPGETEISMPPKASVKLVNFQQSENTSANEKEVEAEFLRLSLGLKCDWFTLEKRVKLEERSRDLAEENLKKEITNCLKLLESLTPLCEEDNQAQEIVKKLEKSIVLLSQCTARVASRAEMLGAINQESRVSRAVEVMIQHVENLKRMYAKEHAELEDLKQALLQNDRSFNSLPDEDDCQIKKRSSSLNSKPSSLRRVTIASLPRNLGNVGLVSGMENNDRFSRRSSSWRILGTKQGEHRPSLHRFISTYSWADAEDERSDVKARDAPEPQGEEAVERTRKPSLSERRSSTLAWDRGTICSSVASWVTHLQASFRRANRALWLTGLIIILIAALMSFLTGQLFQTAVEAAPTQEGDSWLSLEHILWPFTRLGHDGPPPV
Kind of test: co-IP; FLAG Ms LJaw1 co-expressed with GFP-fused Jaw1 or mutants in HEK293 cells for 24 h; lysis in 50 mM Tris-HCl pH 7.6, 150 mM NaCl, 0.5% NP-40; anti-FLAG tag antibody beads, 4 °C, 2 h; western blot with anti-FLAG and anti-GFP antibodies. (A western blot detects proteins with antibodies after separation by electrophoresis.)

For “GFP Ms Jaw1 Coil (mouse) (domain or fragment)”, the binding result is “binds”. With “GFP Ms LJaw1 ΔTM (mouse) (domain or fragment)”, the binding entry is given as “binds weakly”.
